For one data set, the system named is T. gondii strain 2F. Description: In vitro inhibition of T. gondii (growth inhibition assay).
Conditions: not given
It is filed as cell-based, Toxoplasma gondii. As for the experimental part:
Normal human foreskin fibroblasts (American Type Culture Collection, Manassas, Va.) were used to grow tachyzoites and to test compounds for activity and cytotoxicity. Cells were maintained in Dulbecco's modified Eagle medium (Gibco, Grand Island, N.Y.) containing 10% fetal bovine serum (Atlas Biologicals, Fort Collins, Colo.), 25 mM HEPES (Gibco), 2 mM L-glutamine, 50 units of penicillin G per ml, and 50 μg of streptomycin sulfate per ml. A culture of the tachyzoites of T. gondii strain 2F, which constitutively expresses cytoplasmic β-galactosidase and is derived from strain RH (5), was a gift from Vern Carruthers, University of Michigan Medical School.
The compounds were tested for in vitro efficacy against T. gondii and cytotoxicity by previously published methods (9, 10). The median inhibitory dose (50% inhibitory dose [ID50]) and the median cytotoxic dose (50% toxic dose [TD50]) were calculated by extrapolation of the corresponding dose-response curve on a log-linear plot employing the portions of the curve that transected the 50% response point. For each compound, a therapeutic index (TI) was calculated by the formula TI=TD50/ID50.
Artemisinin was obtained from Holley Pharmaceuticals Co., Inc., Fullerton, Calif. Artemether was generously donated by Huiling Wang, University of Wuhan, China. Trimethoprim was purchased from Sigma Chemical Co. (St. Louis, Mo.). Chlorophenol red-β-D-galactopyranoside (Roche, Indianapolis, Ind.), 100 mM in 100 mM HEPES (pH 7.2), was stored frozen at −80° C. CellTiter 96 AQueous One Solution Reagent for determining cytotoxicity was purchased from Promega Corp., Madison, Wis.
`CC1=C(c2nc3ccccc3s2)OC2OC3(C)CCC4C(C)CCC1C24OO3` (stereo not drawn) [Compound 3b, DART-Benzothiazole] yielded a TI of 28.

Staying with this data set, now noted: Table 1; TI=TD50/ID50.
Compound `CC(C)=CCCC(C)CCOCCCC1OC2OC3(C)CCC4C(C)CCC(C1C)C24OO3` (stereo not drawn) [Compound 2d] yielded a TI of 320.

Turning to `C[C@@H]1CC[C@H]2[C@@H](C)C(=O)O[C@@H]3O[C@@]4(C)CC[C@@H]1[C@]32OO4` [Artemisinin], the TI result is reported as “≧243”.

For the compound `CC1CCC2C(C)C(CCCOC(=O)c3ccccc3Br)OC3OC4(C)CCC1C32OO4` (stereo not drawn) [Compound 2c], the TI entry is on record as “≧933”.

As to `CC1CCC2C(C)C(CCCOC(=O)c3ccccc3)OC3OC4(C)CCC1C32OO4` (stereo not drawn) [Compound 2b], the TI result is on record as “≧933”.

In the case of `C[C@H]1[C@@H](CCCO)O[C@@H]2O[C@]3(C)CC[C@H]4[C@H](C)CC[C@@H]1[C@@]24OO3` [Compound 2a, ART-PrOH], the TI was 190.

`COc1cc(Cc2cnc(N)nc2N)cc(OC)c1OC` [Trimethoprim, reference compound] yielded a TI of 12.

As to `C[C@H]1[C@@H](CCCO)O[C@@H]2O[C@]3(C)CC[C@H]4[C@H](C)CC[C@@H]1[C@@]24O3` [Deoxy-2a, Deoxy-ART-PrOH], the TI is on record as 1.2.

Staying with this data set, now noted: Table 2; TI = TD50/ID50.
The compound `CC1=C(c2nccs2)OC2O[C@]3(C)CC[C@H]4[C@H](C)CC[C@@H]1[C@@]24O3` (stereo partly drawn) [Deoxy-3a, deoxy-DART-thiaz] showed a TI of 1.8.

In turn, `CCNC(=O)C1=C(C)C(C)C(C)O1` (stereo not drawn) [Compound 3f, DART-C(O)—NHEt] showed a TI of 52.

`CC1=C(C(=O)O)OC(C)C1C` (stereo not drawn) [Compound 3d, DART-C(O)—OH] displayed a TI of 60.

In turn, `COc1cc(Cc2cnc(N)nc2N)cc(OC)c1OC` [Trimethoprim, reference compound] registered a TI of 11.

Compound `COC(=O)C1=C(C)C(C)C(C)O1` (stereo not drawn) [Compound 3e, DART-C(O)—OMe] displayed a TI of 210.

As to `CC1=C(c2nccs2)OC2OC3(C)CCC4C(C)CCC1C24OO3` (stereo not drawn) [Compound 3a, DART-Thiaz], the TI is reported as 975.

The compound `CC1=C(C=O)OC(C)C1C` (stereo not drawn) [Compound 3c, DART-ald] came in with a TI of 92.

The values above are taken from patent US8431611B2, “Artemisinin derivatives” (Johns Hopkins University, priority 2006, dated 2013).
